In the supplement of paper PMC10849652:
This is one part of the list.

By UniProt entry, the sequences of proteins in these tests, tags left out. Where a name states a change or a piece, a line headed by the entry shows the natural chain unless it says otherwise.
UniProt O14657: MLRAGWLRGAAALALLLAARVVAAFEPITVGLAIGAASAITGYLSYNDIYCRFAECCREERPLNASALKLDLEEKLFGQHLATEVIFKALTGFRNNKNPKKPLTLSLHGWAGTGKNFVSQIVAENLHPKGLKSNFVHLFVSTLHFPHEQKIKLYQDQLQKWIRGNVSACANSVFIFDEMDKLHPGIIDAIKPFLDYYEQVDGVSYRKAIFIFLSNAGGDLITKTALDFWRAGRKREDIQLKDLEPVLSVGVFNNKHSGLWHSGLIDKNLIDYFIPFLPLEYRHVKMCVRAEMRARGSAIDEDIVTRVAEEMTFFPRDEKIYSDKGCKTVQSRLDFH
UniProt O00220, whole entry, looked up: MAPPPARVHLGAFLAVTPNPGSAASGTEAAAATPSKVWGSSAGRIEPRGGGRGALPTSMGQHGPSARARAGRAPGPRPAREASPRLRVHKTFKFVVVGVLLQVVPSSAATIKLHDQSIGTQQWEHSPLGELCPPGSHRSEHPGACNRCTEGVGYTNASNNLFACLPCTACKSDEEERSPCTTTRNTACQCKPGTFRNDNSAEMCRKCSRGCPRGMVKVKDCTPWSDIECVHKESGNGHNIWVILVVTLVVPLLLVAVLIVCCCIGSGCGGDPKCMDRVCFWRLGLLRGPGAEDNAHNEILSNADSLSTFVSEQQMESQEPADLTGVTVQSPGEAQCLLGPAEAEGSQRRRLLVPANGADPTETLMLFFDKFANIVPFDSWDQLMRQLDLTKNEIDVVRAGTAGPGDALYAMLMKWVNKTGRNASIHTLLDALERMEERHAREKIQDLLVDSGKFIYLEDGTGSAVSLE
UniProt Q9BTV4: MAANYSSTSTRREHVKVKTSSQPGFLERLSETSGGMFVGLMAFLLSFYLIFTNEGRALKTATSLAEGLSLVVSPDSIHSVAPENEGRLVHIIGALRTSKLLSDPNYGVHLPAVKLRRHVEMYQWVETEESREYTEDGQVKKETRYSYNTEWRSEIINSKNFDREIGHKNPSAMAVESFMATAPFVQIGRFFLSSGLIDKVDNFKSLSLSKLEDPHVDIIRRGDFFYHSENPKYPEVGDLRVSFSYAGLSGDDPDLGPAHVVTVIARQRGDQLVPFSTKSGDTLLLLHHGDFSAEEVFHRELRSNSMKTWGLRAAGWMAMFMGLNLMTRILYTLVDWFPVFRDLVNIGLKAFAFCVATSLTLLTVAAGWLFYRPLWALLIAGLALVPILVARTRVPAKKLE
UniProt Q13625: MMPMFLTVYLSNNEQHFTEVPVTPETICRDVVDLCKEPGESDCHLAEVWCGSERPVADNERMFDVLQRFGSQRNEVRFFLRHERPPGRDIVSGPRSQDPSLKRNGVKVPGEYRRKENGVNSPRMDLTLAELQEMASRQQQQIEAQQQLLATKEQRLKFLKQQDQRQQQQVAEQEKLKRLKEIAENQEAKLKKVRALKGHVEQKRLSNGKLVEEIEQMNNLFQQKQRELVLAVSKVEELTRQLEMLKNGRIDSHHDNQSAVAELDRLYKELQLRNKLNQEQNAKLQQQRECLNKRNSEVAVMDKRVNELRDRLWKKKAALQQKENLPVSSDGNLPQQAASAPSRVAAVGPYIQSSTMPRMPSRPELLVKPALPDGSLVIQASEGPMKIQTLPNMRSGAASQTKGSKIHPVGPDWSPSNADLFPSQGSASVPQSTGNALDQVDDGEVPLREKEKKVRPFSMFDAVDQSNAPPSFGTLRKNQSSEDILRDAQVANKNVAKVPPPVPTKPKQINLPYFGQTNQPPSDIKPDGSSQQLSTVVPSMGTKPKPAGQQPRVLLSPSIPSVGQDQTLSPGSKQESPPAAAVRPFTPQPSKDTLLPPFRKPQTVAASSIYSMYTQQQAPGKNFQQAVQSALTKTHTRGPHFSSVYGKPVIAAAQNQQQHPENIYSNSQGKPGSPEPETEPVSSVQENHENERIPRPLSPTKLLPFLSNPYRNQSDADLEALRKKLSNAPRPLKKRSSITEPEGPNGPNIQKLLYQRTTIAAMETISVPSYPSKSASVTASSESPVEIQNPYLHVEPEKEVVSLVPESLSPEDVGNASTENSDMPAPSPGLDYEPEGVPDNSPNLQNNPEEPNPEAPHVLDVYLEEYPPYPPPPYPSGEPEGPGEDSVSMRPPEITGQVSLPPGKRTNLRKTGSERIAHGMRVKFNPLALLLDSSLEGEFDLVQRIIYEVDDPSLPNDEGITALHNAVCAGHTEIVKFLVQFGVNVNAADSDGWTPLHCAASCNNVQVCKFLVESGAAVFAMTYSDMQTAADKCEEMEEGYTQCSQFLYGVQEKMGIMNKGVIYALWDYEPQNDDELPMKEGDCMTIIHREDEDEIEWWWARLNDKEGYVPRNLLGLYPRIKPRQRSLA
UniProt P63313: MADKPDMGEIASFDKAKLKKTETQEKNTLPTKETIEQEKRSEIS
UniProt Q15388, whole entry, looked up: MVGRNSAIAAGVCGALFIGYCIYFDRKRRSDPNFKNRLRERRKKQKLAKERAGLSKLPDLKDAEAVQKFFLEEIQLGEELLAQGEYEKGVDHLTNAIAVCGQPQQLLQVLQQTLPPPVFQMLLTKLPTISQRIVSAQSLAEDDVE
UniProt P20333, whole entry, looked up: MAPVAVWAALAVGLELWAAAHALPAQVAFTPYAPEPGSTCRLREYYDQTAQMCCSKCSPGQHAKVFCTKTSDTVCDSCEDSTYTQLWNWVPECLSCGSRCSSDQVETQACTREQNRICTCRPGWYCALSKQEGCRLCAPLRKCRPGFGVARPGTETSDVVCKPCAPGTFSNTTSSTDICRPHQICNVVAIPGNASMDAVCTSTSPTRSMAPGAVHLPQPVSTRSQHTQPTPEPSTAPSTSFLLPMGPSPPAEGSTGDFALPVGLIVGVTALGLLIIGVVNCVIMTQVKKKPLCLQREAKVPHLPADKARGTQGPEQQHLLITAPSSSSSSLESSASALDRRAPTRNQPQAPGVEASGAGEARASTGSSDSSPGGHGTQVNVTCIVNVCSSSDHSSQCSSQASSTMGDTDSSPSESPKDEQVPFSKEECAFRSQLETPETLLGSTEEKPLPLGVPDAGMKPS
UniProt Q9NVH6: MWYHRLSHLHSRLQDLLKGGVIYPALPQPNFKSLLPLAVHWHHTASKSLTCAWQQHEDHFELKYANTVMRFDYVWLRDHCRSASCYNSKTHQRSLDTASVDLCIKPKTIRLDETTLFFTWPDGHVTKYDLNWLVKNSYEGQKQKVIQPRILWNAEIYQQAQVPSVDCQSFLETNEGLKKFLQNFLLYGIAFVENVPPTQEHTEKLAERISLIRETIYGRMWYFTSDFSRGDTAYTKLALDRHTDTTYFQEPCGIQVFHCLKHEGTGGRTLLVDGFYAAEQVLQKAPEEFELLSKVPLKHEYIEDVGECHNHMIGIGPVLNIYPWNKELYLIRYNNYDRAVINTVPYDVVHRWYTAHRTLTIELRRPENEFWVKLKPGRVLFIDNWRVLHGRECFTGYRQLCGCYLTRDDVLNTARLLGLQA
UniProt Q8NBN3: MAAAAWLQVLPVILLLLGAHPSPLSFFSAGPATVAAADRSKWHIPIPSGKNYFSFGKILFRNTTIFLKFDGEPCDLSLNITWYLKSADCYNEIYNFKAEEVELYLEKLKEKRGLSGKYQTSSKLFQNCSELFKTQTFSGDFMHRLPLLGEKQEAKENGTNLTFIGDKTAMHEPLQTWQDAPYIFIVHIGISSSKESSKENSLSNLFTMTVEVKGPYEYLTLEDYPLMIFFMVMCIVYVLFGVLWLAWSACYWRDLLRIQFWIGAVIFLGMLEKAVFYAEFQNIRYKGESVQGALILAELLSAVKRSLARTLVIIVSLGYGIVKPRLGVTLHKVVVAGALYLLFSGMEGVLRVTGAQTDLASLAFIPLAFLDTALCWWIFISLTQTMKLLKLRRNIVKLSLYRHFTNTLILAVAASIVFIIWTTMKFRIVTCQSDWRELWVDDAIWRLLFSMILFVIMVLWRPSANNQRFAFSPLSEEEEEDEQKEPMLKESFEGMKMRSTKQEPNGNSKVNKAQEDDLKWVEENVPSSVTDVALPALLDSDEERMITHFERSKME
UniProt O95379: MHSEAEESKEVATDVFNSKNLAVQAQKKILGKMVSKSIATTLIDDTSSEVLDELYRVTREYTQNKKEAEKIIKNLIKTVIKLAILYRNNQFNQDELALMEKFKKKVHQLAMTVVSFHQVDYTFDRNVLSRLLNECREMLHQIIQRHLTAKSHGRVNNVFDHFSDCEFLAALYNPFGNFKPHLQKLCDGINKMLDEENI
UniProt P29144: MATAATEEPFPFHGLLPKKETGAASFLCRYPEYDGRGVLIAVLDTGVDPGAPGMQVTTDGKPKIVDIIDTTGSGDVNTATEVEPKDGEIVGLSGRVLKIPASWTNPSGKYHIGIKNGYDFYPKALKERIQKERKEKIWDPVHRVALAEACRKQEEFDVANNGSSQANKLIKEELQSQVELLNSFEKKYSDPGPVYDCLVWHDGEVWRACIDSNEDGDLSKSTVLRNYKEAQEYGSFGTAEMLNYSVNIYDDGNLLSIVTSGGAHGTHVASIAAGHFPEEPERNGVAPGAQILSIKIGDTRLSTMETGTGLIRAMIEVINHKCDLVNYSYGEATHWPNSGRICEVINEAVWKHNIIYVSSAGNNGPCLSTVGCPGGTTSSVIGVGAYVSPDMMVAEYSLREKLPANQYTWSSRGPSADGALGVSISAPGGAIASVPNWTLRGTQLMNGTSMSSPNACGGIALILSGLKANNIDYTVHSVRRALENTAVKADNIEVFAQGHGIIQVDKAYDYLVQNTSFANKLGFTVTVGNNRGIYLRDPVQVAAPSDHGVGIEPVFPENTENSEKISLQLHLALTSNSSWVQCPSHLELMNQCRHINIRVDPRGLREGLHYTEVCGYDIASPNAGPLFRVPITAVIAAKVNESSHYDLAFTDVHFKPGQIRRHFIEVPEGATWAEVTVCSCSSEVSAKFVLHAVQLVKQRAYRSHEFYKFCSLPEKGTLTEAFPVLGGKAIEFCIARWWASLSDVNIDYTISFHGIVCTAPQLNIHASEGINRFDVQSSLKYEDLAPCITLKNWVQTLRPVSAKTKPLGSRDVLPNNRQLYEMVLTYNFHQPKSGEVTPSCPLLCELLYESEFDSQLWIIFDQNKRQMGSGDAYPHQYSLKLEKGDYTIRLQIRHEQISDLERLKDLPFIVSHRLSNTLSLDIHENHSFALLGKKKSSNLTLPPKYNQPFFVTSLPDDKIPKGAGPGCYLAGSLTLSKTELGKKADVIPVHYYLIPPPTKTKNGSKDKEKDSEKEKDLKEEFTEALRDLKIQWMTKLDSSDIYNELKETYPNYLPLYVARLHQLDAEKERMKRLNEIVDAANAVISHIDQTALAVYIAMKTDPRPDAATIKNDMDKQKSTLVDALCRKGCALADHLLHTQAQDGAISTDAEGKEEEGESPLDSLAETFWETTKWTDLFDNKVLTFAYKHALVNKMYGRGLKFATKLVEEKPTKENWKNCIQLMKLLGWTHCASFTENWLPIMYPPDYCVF
UniProt Q8N511: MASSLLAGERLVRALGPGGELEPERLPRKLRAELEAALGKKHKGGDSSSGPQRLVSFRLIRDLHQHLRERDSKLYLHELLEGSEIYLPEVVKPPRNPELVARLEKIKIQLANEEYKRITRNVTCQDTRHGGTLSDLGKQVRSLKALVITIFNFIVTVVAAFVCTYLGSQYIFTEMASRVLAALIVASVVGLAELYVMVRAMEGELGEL
UniProt P60174, whole entry, looked up: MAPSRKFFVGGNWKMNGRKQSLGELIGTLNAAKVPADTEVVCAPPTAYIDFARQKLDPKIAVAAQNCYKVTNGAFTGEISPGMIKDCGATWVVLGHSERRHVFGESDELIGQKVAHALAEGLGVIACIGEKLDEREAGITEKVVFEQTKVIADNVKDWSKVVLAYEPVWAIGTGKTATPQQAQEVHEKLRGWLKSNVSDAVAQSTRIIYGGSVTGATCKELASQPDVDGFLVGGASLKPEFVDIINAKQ
UniProt Q8N4H5: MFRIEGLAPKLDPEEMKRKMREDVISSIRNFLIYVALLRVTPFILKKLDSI
UniProt O14773: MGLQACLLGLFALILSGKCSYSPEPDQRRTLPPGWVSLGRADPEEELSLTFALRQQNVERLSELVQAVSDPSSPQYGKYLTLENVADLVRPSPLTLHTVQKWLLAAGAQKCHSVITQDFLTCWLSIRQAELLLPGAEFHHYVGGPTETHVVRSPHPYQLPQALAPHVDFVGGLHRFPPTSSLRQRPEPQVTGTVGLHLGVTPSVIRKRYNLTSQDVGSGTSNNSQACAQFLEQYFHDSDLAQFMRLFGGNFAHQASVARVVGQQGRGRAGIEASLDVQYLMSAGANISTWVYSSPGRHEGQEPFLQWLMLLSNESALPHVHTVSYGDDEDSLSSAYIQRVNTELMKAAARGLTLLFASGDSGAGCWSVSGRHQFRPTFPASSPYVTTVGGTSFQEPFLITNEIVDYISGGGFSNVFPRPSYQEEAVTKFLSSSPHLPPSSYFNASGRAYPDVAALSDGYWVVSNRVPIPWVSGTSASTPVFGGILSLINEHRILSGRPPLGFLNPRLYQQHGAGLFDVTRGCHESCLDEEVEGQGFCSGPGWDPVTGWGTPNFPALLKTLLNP

Legend:
Experiment in all cases: log2 fold change, soluble protein after heating vs DMSO (PISA); higher = thermal stabilisation; K562 lysate, 10 uM; active = over 0.2 and 3.5 SD of the protein, either way, in both replicates (recomputed)
lapatinib = compound: CS(=O)(=O)CCNCc1ccc(-c2ccc3ncnc(Nc4ccc(OCc5cccc(F)c5)c(Cl)c4)c3c2)o1 [lapatinib]
Summary of the method: (§1)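 Log-two fold change in thermal stability relative to solvent controls is reported from duplicates. For each sample, crude K562 extract from dounce-homogenised pellets in PBS pH 7.4 with 1 mM MgCl2, at 1 mg/mL protein, was treated with 10 μM compound for 30 min. Aliquots heated for 3 min across 48°C-58°C were pooled, brought to 0.5% NP-40 at 4°C and cleared at 21,000xg for 90 min. The supernatant was quantified by TMTpro 16plex LC-MS/MS with channel sums equalised.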

pictilisib = compound: CS(=O)(=O)N1CCN(Cc2cc3nc(-c4cccc5[nH]ncc45)nc(N4CCOCC4)c3s2)CC1 [pictilisib]
Summary of the method: as §1

crizotinib = compound: C[C@@H](Oc1cc(-c2cnn(C3CCNCC3)c2)cnc1N)c1c(Cl)ccc(F)c1Cl [crizotinib]
Summary of the method: as §1

[1] = compound: C[C@H](C1=CC=C(C=C1)C(=O)NC2=C3C=CNC3=NC=C2)N
Summary of the method: as §1

duvelisib = compound: C[C@H](Nc1ncnc2nc[nH]c12)c1cc2cccc(Cl)c2c(=O)n1-c1ccccc1 [duvelisib]
Summary of the method: as §1

gandotinib = compound: Cc1cc(Nc2cc(CN3CCOCC3)c3nc(C)c(Cc4ccc(Cl)cc4F)n3n2)n[nH]1 [gandotinib]
Summary of the method: as §1

tozasertib = compound: Cc1cc(Nc2cc(N3CCN(C)CC3)nc(Sc3ccc(NC(=O)C4CC4)cc3)n2)n[nH]1 [tozasertib]
Summary of the method: as §1

doramapimod = compound: Cc1ccc(-n2nc(C(C)(C)C)cc2NC(=O)Nc2ccc(OCCN3CCOCC3)c3ccccc23)cc1 [doramapimod]
Summary of the method: as §1

bafetinib = compound: Cc1ccc(NC(=O)c2ccc(CN3CC[C@H](N(C)C)C3)c(C(F)(F)F)c2)cc1Nc1nccc(-c2cncnc2)n1 [bafetinib]
Summary of the method: as §1

[2] = compound: Cc1cccc(CC(=O)N2CCc3c2ccc(-c2cn(C)c4ncnc(N)c24)c3F)n1
Summary of the method: as §1

Measured: log2 fold change

TPP2 (UniProt Q5VZU9)
active: [1] -0.309
inactive: lapatinib -0.023 | pictilisib 0.069 | crizotinib -0.057 | duvelisib 0.02 | gandotinib 0.104 | tozasertib -0.087 | doramapimod -0.029 | bafetinib -0.044 | [2] 0.137

TOR1B (UniProt O14657)
inactive: lapatinib -0.013 | pictilisib -0.033 | crizotinib -0.01 | [1] -0.03 | duvelisib 0.01 | gandotinib 0.048 | tozasertib 0.095 | doramapimod 0.058 | bafetinib -0.054 | [2] 0.003

TNFRSF10A (UniProt O00220)
inactive: lapatinib 0.038 | pictilisib -0.03 | crizotinib -0.025 | [1] 0.109 | duvelisib -0.024 | gandotinib -0.104 | tozasertib 0.045 | doramapimod 0.006 | bafetinib -0.024 | [2] -0.106

TMEM43 (UniProt Q9BTV4)
inactive: lapatinib -0.04 | pictilisib 0.002 | crizotinib -0.043 | [1] -0.06 | duvelisib -0.009 | gandotinib 0.083 | tozasertib 0.028 | doramapimod 0.035 | bafetinib -0.039 | [2] 0.072

TP53I3 (UniProt Q53FA7)
inactive: lapatinib -0.013 | pictilisib -0.019 | crizotinib 0.028 | [1] -0.035 | duvelisib 0.023 | gandotinib 0.031 | tozasertib 0.007 | doramapimod -0.057 | bafetinib 0.031 | [2] -0.049

TP53BP2 isoform 3 (UniProt Q13625)
inactive: lapatinib 0.009 | pictilisib -0.072 | crizotinib -0.002 | [1] -0.026 | duvelisib -0.041 | gandotinib 0.002 | tozasertib -0.116 | doramapimod 0.03 | bafetinib 0.028 | [2] -0.054

TOP3A (UniProt Q13472)
inactive: lapatinib 0.117 | pictilisib -0.02 | crizotinib -0.024 | [1] -0.066 | duvelisib 0.057 | gandotinib -0.088 | tozasertib 0.238 | doramapimod 0.053 | bafetinib 0.1 | [2] -0.009

TMSB10 (UniProt P63313)
inactive: lapatinib 0.005 | pictilisib 0.084 | crizotinib 0.009 | [1] 0.256 | duvelisib 0.059 | gandotinib -0.117 | tozasertib -0.117 | doramapimod 0.016 | bafetinib 0.018 | [2] -0.098

TMEM189-UBE2V1 (UniProt I3L0A0)
inactive: lapatinib -0.017 | pictilisib -0.029 | crizotinib -0.009 | [1] -0.035 | duvelisib 0.042 | gandotinib 0.059 | tozasertib 0.016 | doramapimod 0.021 | bafetinib -0.022 | [2] 0.043

TOPBP1 (UniProt Q92547)
inactive: lapatinib 0.095 | pictilisib -0.037 | crizotinib 0.023 | [1] 0.206 | duvelisib -0.03 | gandotinib -0.048 | tozasertib -0.066 | doramapimod 0.056 | bafetinib -0.076 | [2] -0.017

TOMM20 (UniProt Q15388)
inactive: lapatinib 0.031 | pictilisib 0.015 | crizotinib -0.131 | [1] 0.036 | duvelisib 0.028 | gandotinib 0.066 | tozasertib 0.048 | doramapimod -0.035 | bafetinib -0.046 | [2] 0

TOMM34 (UniProt Q15785)
inactive: lapatinib 0.012 | pictilisib -0.019 | crizotinib -0.05 | [1] 0.007 | duvelisib 0.007 | gandotinib -0.054 | tozasertib 0.009 | doramapimod 0.037 | bafetinib -0.022 | [2] 0.005

TNPO3 (UniProt Q9Y5L0)
inactive: lapatinib -0.024 | pictilisib -0.001 | crizotinib 0.01 | [1] -0.015 | duvelisib 0.025 | gandotinib -0.006 | tozasertib -0.036 | doramapimod -0.024 | bafetinib -0.028 | [2] 0.026

TNFRSF1B (UniProt P20333)
inactive: lapatinib -0.204 | pictilisib -0.037 | crizotinib 0.007 | [1] -0.144 | duvelisib 0.007 | gandotinib 0.127 | tozasertib -0.013 | doramapimod -0.034 | bafetinib -0.04 | [2] 0.122

TNRC6B (UniProt Q9UPQ9)
inactive: lapatinib 0.004 | pictilisib -0.059 | crizotinib 0.049 | [1] -0.02 | duvelisib 0.005 | gandotinib 0.02 | tozasertib -0.043 | doramapimod -0.118 | bafetinib -0.08 | [2] 0.005

TPM4 (UniProt P67936)
inactive: lapatinib -0.002 | pictilisib -0.043 | crizotinib 0.003 | [1] -0.001 | duvelisib -0.021 | gandotinib 0.039 | tozasertib -0.098 | doramapimod -0.029 | bafetinib -0.055 | [2] -0.018

TMLHE isoform 8 (UniProt Q9NVH6)
inactive: lapatinib -0.028 | pictilisib 0.044 | crizotinib -0.03 | [1] -0.098 | duvelisib -0.015 | gandotinib 0.018 | tozasertib 0 | doramapimod 0.031 | bafetinib 0.026 | [2] -0.039

Eight consecutive entries out of the list so far:
TPP2 (UniProt Q5VZU9)
active: [1] -0.309
inactive: lapatinib -0.023 | pictilisib 0.069 | crizotinib -0.057 | duvelisib 0.02 | gandotinib 0.104 | tozasertib -0.087 | doramapimod -0.029 | bafetinib -0.044 | [2] 0.137

TOR1B (UniProt O14657)
inactive: lapatinib -0.013 | pictilisib -0.033 | crizotinib -0.01 | [1] -0.03 | duvelisib 0.01 | gandotinib 0.048 | tozasertib 0.095 | doramapimod 0.058 | bafetinib -0.054 | [2] 0.003

TNFRSF10A (UniProt O00220)
inactive: lapatinib 0.038 | pictilisib -0.03 | crizotinib -0.025 | [1] 0.109 | duvelisib -0.024 | gandotinib -0.104 | tozasertib 0.045 | doramapimod 0.006 | bafetinib -0.024 | [2] -0.106

TMEM43 (UniProt Q9BTV4)
inactive: lapatinib -0.04 | pictilisib 0.002 | crizotinib -0.043 | [1] -0.06 | duvelisib -0.009 | gandotinib 0.083 | tozasertib 0.028 | doramapimod 0.035 | bafetinib -0.039 | [2] 0.072

TP53I3 (UniProt Q53FA7)
inactive: lapatinib -0.013 | pictilisib -0.019 | crizotinib 0.028 | [1] -0.035 | duvelisib 0.023 | gandotinib 0.031 | tozasertib 0.007 | doramapimod -0.057 | bafetinib 0.031 | [2] -0.049

TP53BP2 isoform 3 (UniProt Q13625)
inactive: lapatinib 0.009 | pictilisib -0.072 | crizotinib -0.002 | [1] -0.026 | duvelisib -0.041 | gandotinib 0.002 | tozasertib -0.116 | doramapimod 0.03 | bafetinib 0.028 | [2] -0.054

TOP3A (UniProt Q13472)
inactive: lapatinib 0.117 | pictilisib -0.02 | crizotinib -0.024 | [1] -0.066 | duvelisib 0.057 | gandotinib -0.088 | tozasertib 0.238 | doramapimod 0.053 | bafetinib 0.1 | [2] -0.009

TMSB10 (UniProt P63313)
inactive: lapatinib 0.005 | pictilisib 0.084 | crizotinib 0.009 | [1] 0.256 | duvelisib 0.059 | gandotinib -0.117 | tozasertib -0.117 | doramapimod 0.016 | bafetinib 0.018 | [2] -0.098

The list continues.

TMEM87A (UniProt Q8NBN3)
active: gandotinib 0.242 | [2] 0.248
inactive: lapatinib -0.007 | pictilisib -0.015 | crizotinib 0.016 | [1] -0.082 | duvelisib 0.012 | tozasertib -0.029 | doramapimod 0.026 | bafetinib -0.007

TMEM62 (UniProt Q0P6H9)
inactive: lapatinib -0.033 | pictilisib -0.12 | crizotinib 0.032 | [1] -0.237 | duvelisib -0.08 | gandotinib -0.223 | tozasertib -0.011 | doramapimod -0.009 | bafetinib -0.155 | [2] 0.198

TOMM40L (UniProt Q969M1)
inactive: lapatinib -0.006 | pictilisib 0.004 | crizotinib -0.062 | [1] -0.045 | duvelisib -0.008 | gandotinib 0.077 | tozasertib 0 | doramapimod 0 | bafetinib -0.066 | [2] 0.029

TMX3 (UniProt Q96JJ7)
inactive: lapatinib -0.016 | pictilisib -0.027 | crizotinib -0.001 | [1] -0.083 | duvelisib 0.021 | gandotinib 0.032 | tozasertib -0.005 | doramapimod 0.005 | bafetinib -0.005 | [2] 0.015

TMF1 isoform 2 (UniProt P82094)
inactive: lapatinib 0.004 | pictilisib -0.018 | crizotinib 0.001 | [1] -0.047 | duvelisib 0.002 | gandotinib 0.079 | tozasertib 0.014 | doramapimod -0.002 | bafetinib -0.019 | [2] 0.036

TNFAIP8 isoform 4 (UniProt O95379)
inactive: lapatinib -0.004 | pictilisib -0.018 | crizotinib 0.057 | [1] 0.009 | duvelisib 0.001 | gandotinib 0.026 | tozasertib 0.042 | doramapimod -0.088 | bafetinib -0.014 | [2] -0.011

TNFRSF8 (UniProt P28908)
inactive: lapatinib 0.02 | pictilisib -0.075 | crizotinib -0.004 | [1] -0.04 | duvelisib -0.025 | gandotinib 0.035 | tozasertib 0.038 | doramapimod 0.058 | bafetinib -0.036 | [2] 0.006

TP53RK (UniProt Q96S44)
inactive: lapatinib -0.011 | pictilisib 0.026 | crizotinib 0.042 | [1] 0.042 | duvelisib -0.029 | gandotinib -0.041 | tozasertib -0.01 | doramapimod -0.029 | bafetinib -0.032 | [2] 0.035

TPP2 (UniProt P29144)
inactive: lapatinib -0.007 | pictilisib 0.014 | crizotinib -0.009 | [1] 0.035 | duvelisib 0.011 | gandotinib -0.011 | tozasertib -0.009 | doramapimod 0.007 | bafetinib -0.008 | [2] -0.011

TMEM199 (UniProt Q8N511)
inactive: lapatinib -0.034 | pictilisib -0.035 | crizotinib 0.062 | [1] -0.053 | duvelisib 0.051 | gandotinib 0.016 | tozasertib 0.074 | doramapimod -0.068 | bafetinib -0.016 | [2] 0.099

TPI1 (UniProt P60174)
inactive: lapatinib -0.02 | pictilisib 0.054 | crizotinib -0.036 | [1] -0.176 | duvelisib -0.006 | gandotinib 0.07 | tozasertib -0.092 | doramapimod -0.018 | bafetinib -0.164 | [2] 0.004

TOMM5 (UniProt Q8N4H5)
inactive: lapatinib -0.044 | pictilisib 0.022 | crizotinib -0.027 | [1] 0.412 | duvelisib 0.014 | gandotinib -0.149 | tozasertib -0.172 | doramapimod 0.027 | bafetinib 0.01 | [2] -0.18

TPP1 (UniProt O14773)
inactive: lapatinib -0.019 | pictilisib 0.017 | crizotinib -0.057 | [1] -0.006 | duvelisib 0.017 | gandotinib 0.014 | tozasertib -0.028 | doramapimod -0.033 | bafetinib -0.023 | [2] 0.01
